Data as given in PubChem BioAssay AID1487 (National Center for Advancing Translational Sciences (NCATS), 2009).
Some of the results follow. Further columns of the screen follow, without active or inactive calls. The list favours compounds with an active or inconclusive main result. The note in brackets gives the kind of curve behind each potency; many fits are weak.

Test: qHTS Assay for Modulators of Lamin A Splicing
Conditions: HeLa LMNA splicing GFP/RFP minigene ratio, 48 h
Summary of the method: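 S3 HeLa cells stably expressing lamin A-EGFP splicing minigene plus DsRed2, 600 cells/well, 48 h compound exposure at 37C. Laser-scanning cytometry; analysed as GFP (500-530 nm)/RFP (575-640 nm) total intensity ratio; 0.5% DMSO vehicle.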

[1] = measured here: GFP splicing reporter channel
[2] = measured here: RFP viability control channel

In the case of Cc1ccc(N=c2c([N+](=O)[O-])nn(-c3ccccc3)n2O)c(C)c1, the AC50 [1] is reported as 35.5 µM [rising, single point] and the AC50 [2] is reported as 35.5 µM [rising, single point].

In the case of CCOC(=O)/C(=C/c1ccc(Cl)cc1)NC(=O)c1ccco1, the AC50 [1] is reported as 3.16 µM [rising, partial curve].

With Nc1nc(-c2ccccc2)cc(N2CCCCC2)n1 the AC50 [2] was 3.98 µM [rising, full curve, poor fit].

For C(=C\c1ccccc1)/CSc1nnc(-c2ccccn2)n1Cc1ccco1, the AC50 [2] was 3.55 µM [rising, single point].

For COc1ccc(-c2noc(CSc3nc(N)c(-c4ccccc4)c(=O)[nH]3)n2)cc1, the AC50 [2] was 35.5 µM [rising, single point].

In the case of O=C(NNc1cccc(Cl)n1)Nc1ccc(F)cc1, the AC50 [2] is reported as 5.62 µM [rising, partial curve].

With O=[N+]([O-])c1cc(S(=O)(=O)Nc2ccccc2)ccc1N1CCN(c2ccc(O)cc2)CC1 the AC50 [2] was 20 µM [rising, single point].

For CC(c1ccccn1)N(CCN(C)C)C(=S)Nc1cccc(F)c1 (configuration not stated), the AC50 [1] was 20 µM [rising, single point] and the AC50 [2] was 25.1 µM [rising, single point].

For COc1cc(OC)c(NC(=O)c2ccc3c(SCC(=O)O)c4c(nc3c2)CCCC4)cc1Cl, the AC50 [2] was 0.00316 µM [rising, full curve, poor fit].

In the case of CCN(c1ccccc1)S(=O)(=O)c1ccc(OC)c(NC(=O)CNC)c1, the AC50 [1] is reported as 0.282 µM [falling, full curve] and the AC50 [2] is reported as 0.2 µM [falling, full curve, poor fit].

In the case of Cc1ccc(OCCn2cnc(Cl)c2Cl)cc1, the AC50 [1] is reported as 8.91 µM [rising, partial curve].

With CC(=O)Nc1ccc(OCC(O)CNC2CCCC2)cc1 (configuration not stated) the AC50 [2] was 31.6 µM [falling, partial curve].

For COCCn1c(=S)[nH]c2cc(C(=O)N3CCN(Cc4ccc5c(c4)OCO5)CC3)ccc2c1=O, the AC50 [1] was 2.82 µM [rising, full curve].

In the case of O=C(Nc1nn(Cc2ccc(Cl)cc2)cc1Br)c1ccc(COc2ccccc2Cl)o1, the AC50 [2] is reported as 14.1 µM [rising, single point].

With CCOC(=O)Cc1c(Sc2ccccc2)c2cc(C)ccc2n1C the AC50 [2] was 35.5 µM [rising, partial curve, poor fit].

For Cc1ccc(CNC(=O)CS(=O)(=O)c2cccc3nsnc23)cc1, the AC50 [1] was 0.0891 µM [rising, full curve, poor fit].

In the case of Cc1ccc2cc(C#N)c(N3CCCN(S(=O)(=O)c4ccc(F)cc4)CC3)nc2c1, the AC50 [2] is reported as 17.8 µM [rising, partial curve, poor fit].

In the case of Cc1ccc(CN2CCN(/N=C\C=C\c3ccccc3)CC2)cc1, the AC50 [1] is reported as 0.891 µM [falling, full curve, poor fit].

In the case of Cc1cccc(NS(=O)(=O)c2ccc3c(c2)CC(C)N3C(=O)C2CCC2)c1C (configuration not stated), the AC50 [2] is reported as 0.02 µM [rising, full curve, poor fit].

For CCc1nc2ccc(C(=O)NCc3cc(OC)ccc3OC)cc2nc1CC, the AC50 [1] was 0.02 µM [rising, full curve, poor fit].

In the case of COc1ccc(-c2ccnc(SCC(=O)c3ccc(OC)c(OC)c3)n2)cc1, the AC50 [2] is reported as 6.31 µM [rising, partial curve].

For O=C(Nc1ccccc1Cc1ccccc1)c1ccccc1NS(=O)(=O)c1ccc(Cl)s1, the AC50 [1] was 14.1 µM [rising, partial curve] and the AC50 [2] was 7.08 µM [rising, full curve].

In the case of COc1cc(OC)c(C2N(C)c3ccccc3N2C)cc1OC, the AC50 [1] is reported as 11.2 µM [rising, single point] and the AC50 [2] is reported as 22.4 µM [rising, single point].

In the case of Cc1cc(C)c(C#N)c(SCS(=O)Cc2ccccc2)n1 (configuration not stated), the AC50 [2] is reported as 5.62 µM [falling, single point].

In the case of Cc1cccc2sc(N(CCN(C)C)C(=O)c3ccc4c(c3)OCCO4)nc12, the AC50 [1] is reported as 0.282 µM [rising, full curve, poor fit] and the AC50 [2] is reported as 0.158 µM [rising, full curve, poor fit].

For COc1ccc(-n2ncc3c(=O)n(CC(=O)Nc4ccc(S(=O)(=O)N5CCOCC5)cc4)cnc32)cc1, the AC50 [2] was 35.5 µM [rising, single point].

With COc1ccc(CC(=O)NCc2n[nH]c(=S)n2-c2ccccc2OC)cc1 the AC50 [1] was 0.631 µM [rising, single point] and the AC50 [2] was 0.501 µM [rising, single point].

For Cc1cc(OC(C)C(=O)Nc2cccc(-c3nc4ccccc4o3)c2)cc(C)c1Cl (configuration not stated), the AC50 [1] was 5.01 µM [rising, partial curve, poor fit] and the AC50 [2] was 14.1 µM [rising, partial curve].

With Cc1ccccc1OCc1nc2ccccc2c(=O)n1/N=C/c1cn[nH]c1-c1ccccc1 the AC50 [1] was 17.8 µM [rising, partial curve] and the AC50 [2] was 17.8 µM [rising, partial curve].

With COc1ccc(N=C2SC(CC(=O)Nc3ccccc3)C(=O)N2Cc2ccccn2)cc1 (configuration not stated) the AC50 [1] was 17.8 µM [falling, single point].

In the case of CCN1CCCC1CNC(=O)c1cc2c(C)nc3ccccc3c2o1 (configuration not stated), the AC50 [2] is reported as 0.0224 µM [rising, full curve, poor fit].

With Cc1ccc2[nH]c(=O)c(CN(Cc3ccc4c(c3)OCO4)Cc3nnnn3C3CCCC3)cc2c1 the AC50 [1] was 17.8 µM [rising, single point] and the AC50 [2] was 15.8 µM [rising, single point].

In the case of Cc1cccc(-c2nc(C)c(CCNC(=O)C(=O)Nc3ccccc3C#N)s2)c1, the AC50 [1] is reported as 12.6 µM [falling, partial curve] and the AC50 [2] is reported as 22.4 µM [falling, partial curve].

In the case of COc1ccc(NC(=O)CCc2c(C)nn(-c3ccc(N4CCCCC4)nn3)c2C)cc1Cl, the AC50 [1] is reported as 12.6 µM [falling, partial curve, poor fit].

For CC1CCN(CCOCCOc2ccccc2-c2ccccc2)CC1, the AC50 [2] was 0.447 µM [rising, full curve].

With O=C(NC(=S)NC(c1ccccc1)c1ccncc1)c1ccccc1 (configuration not stated) the AC50 [2] was 35.5 µM [rising, single point].
